Results: article PMC8233344
Where two headings read alike, the source gives them in different places. These are yes or no findings as the source states them, for the method shown. In cells and extracts the contact can be indirect. Some binding calls cover weakened binding; strength is not graded here. For some assays here: Tags and fused reporters may be left off the sequences shown.

Protein sequences, listed by entry. Tags and fused reporters are not part of them.
UniProt Q7L0J3: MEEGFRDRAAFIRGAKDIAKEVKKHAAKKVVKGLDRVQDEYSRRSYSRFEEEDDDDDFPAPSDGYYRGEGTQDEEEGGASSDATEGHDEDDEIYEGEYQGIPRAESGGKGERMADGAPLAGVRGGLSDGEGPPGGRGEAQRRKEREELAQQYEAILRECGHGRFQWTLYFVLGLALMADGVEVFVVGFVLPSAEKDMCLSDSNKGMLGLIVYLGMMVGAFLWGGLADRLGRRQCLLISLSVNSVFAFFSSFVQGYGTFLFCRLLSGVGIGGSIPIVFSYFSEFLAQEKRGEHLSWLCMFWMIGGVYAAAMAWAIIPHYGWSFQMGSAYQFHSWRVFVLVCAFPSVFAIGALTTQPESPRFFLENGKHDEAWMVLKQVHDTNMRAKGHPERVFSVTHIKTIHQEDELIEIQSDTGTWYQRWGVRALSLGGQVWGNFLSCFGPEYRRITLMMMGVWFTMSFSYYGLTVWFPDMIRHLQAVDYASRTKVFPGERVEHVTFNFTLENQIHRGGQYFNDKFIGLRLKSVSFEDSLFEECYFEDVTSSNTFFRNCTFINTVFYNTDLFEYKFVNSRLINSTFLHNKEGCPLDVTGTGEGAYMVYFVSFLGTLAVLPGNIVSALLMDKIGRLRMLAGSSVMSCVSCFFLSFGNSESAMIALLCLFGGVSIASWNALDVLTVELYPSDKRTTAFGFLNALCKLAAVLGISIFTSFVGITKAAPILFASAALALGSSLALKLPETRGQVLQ

T1: RFP-C9orf72 (human) (UniProt Q96LT7)
T1 sequence: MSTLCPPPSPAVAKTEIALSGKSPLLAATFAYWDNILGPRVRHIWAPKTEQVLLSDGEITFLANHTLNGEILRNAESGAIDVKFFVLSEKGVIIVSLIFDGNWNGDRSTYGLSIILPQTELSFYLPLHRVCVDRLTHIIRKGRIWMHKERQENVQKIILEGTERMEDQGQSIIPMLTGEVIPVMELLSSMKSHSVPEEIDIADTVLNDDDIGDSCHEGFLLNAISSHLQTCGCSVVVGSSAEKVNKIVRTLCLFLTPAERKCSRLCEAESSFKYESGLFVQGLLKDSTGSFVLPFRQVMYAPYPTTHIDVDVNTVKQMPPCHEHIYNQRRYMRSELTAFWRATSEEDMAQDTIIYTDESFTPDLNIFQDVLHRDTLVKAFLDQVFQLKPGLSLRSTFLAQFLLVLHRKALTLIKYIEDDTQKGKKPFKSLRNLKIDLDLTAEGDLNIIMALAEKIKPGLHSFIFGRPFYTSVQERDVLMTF


Assays:
RFP-C9orf72 (human) [1] = molecular target: T1, RFP-C9orf72 (human); test: co-IP; HEK293T cells co-transfected with RFP-C9orf72 or RFP and Myc-SMCR8 or Myc-SV2a; RIPA lysate incubated 2 h with RFP-Trap agarose beads, rinsed 5 times with RIPA; immunoblot with anti-Myc and anti-C9orf72
RFP-C9orf72 (human) [2] = molecular target: T1, RFP-C9orf72 (human); test: as above; remark: listed apart in the source

Row | binding (RFP-C9orf72 (human) [1]) | binding (RFP-C9orf72 (human) [2]) | Molecule
1 | binds | – | Myc-SV2a (from UniProt Q7L0J3 1-742)
2 | – | binds | Myc-SMCR8 (protein, UniProt Q8TEV9 1-937) MISAPDVVAFTKEEEYEEEPYNEPALPEEYSVPLFPFASQGANPWSKLSGAKFSRDFILISEFSEQVGPQPLLTIPNDTKVFGTFDLNYFSLRIMSVDYQASFVGHPPGSAYPKLNFVEDSKVVLGDSKEGAFAYVHHLTLYDLEARGFVRPFCMAYISADQHKIMQQFQELSAEFSRASECLKTGNRKAFAGELEKKLKDLDYTRTVLHTETEIQKKANDKGFYSSQAIEKANELASVEKSIIEHQDLLKQIRSYPHRKLKGHDLCPGEMEHIQDQASQASTTSNPDESADTDLYTCRPAYTPKLIKAKSTKCFDKKLKTLEELCDTEYFTQTLAQLSHIEHMFRGDLCYLLTSQIDRALLKQQHITNFLFEDFVEVDDRMVEKQESIPSKPSQDRPPSSSLEECPIPKVLISVGSYKSSVESVLIKMEQELGDEEYKEVEVTELSSFDPQENLDYLDMDMKGSISSGESIEVLGTEKSTSVLSKSDSQASLTVPLSPQVVRSKAVSHRTISEDSIEVLSTCPSEALIPDDFKASYPSAINEEESYPDGNEGAIRFQASISPPELGETEEGSIENTPSQIDSSCCIGKESDGQLVLPSTPAHTHSDEDGVVSSPPQRHRQKDQGFRVDFSVENANPSSRDNSCEGFPAYELDPSHLLASRDISKTSLDNYSDTTSYVSSVASTSSDRIPSAYPAGLSSDRHKKRAGQNALKFIRQYPFAHPAIYSLLSGRTLVVLGEDEAIVRKLVTALAIFVPSYGCYAKPVKHWASSPLHIMDFQKWKLIGLQRVASPAGAGTLHALSRYSRYTSILDLDNKTLRCPLYRGTLVPRLADHRTQIKRGSTYYLHVQSMLTQLCSKAFLYTFCHHLHLPTHDKETEELVASRQMSFLKLTLGLVNEDVRVVQYLAELLKLHYMQESPGTSHPMLRFDYVPSFLYKI
